PubChem BioAssay AID1259424, University of Nebraska Medical Center, 2018
This is an unselected part of about 14,000 reagents. 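Higher correlation or smaller distance means closer resemblance to KSR1 loss; control wells, including KSR1 knockdowns, recur on many plates.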 Not stated in the record: the time to read-out.

Screen: 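Find knockdowns that reproduce the expression shifts seen after KSR1 loss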 (primary screen)
System: human HCT116 colon cancer cells
Reagent: siRNA pool against human genes, 50 nM
Measured: 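Log2 levels of six mRNAs (branched-DNA multiplex), adjusted by two reference genes and the non-targeting median, then scored against the average KSR1 knockdown pattern as Pearson r and euclidean distance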
Direction: mean correlation with KSR1 profile and KSR1 correlation: higher = expression change more like KSR1 knockdown; mean distance from KSR1 profile: higher = expression change less like KSR1 knockdown

gene knocked down | mean correlation with KSR1 profile | mean distance from KSR1 profile | KSR1 correlation, replicate 1 | KSR1 correlation, replicate 2 | KSR1 correlation, replicate 3
QRICH1 (glutamine rich 1) | -0.136 | 2.21 | -0.626 | 0.186 | -0.468
MREG (melanoregulin) | -0.533 | 3.49 | -0.671 | -0.628 | -0.314
IFNA8 (interferon alpha 8) | -0.181 | 1.67 | -0.22 | -0.196 | -0.135
ALDH1L1 (aldehyde dehydrogenase 1 family member L1) | -0.0247 | 3.05 | 0.196 | -0.0587 | -0.123
RPE65 (retinoid isomerohydrolase RPE65) | 0.916 | 1.03 | 0.87 | 0.783 | 0.5
SNX15 (sorting nexin 15) | 0.707 | 0.844 | 0.613 | 0.426 | 0.346
GAGE2E (G antigen 2E) | -0.192 | 2.42 | -0.244 | -0.408 | -0.434
POP7 (POP7 ribonuclease P/MRP subunit) | -0.0238 | 4.27 | -0.00237 | -0.0346 | -0.0136
COMMD3 (COMM domain containing 3) | 0.257 | 1.36 | 0.197 | 0.16 | 0.32
PSG3 (pregnancy specific beta-1-glycoprotein 3) | 0.51 | 1.01 | 0.428 | 0.462 | 0.61
DDX19B (DEAD-box helicase 19B) | 0.218 | 1.3 | 0.231 | 0.582 | -0.413
HIF3A (hypoxia inducible factor 3 subunit alpha) | -0.0332 | 2.6 | 0.0607 | 0.0233 | -0.312
ZBTB3 (zinc finger and BTB domain containing 3) | 0.392 | 1.67 | 0.488 | 0.316 | 0.444
SLC27A5 | -0.208 | 1.57 | -0.39 | -0.0861 | 0.0807
ADRB3 (adrenoceptor beta 3) | -0.393 | 4.17 | -0.314 | -0.212 | -0.605
VCP (valosin containing protein) | -0.159 | 4.31 | -0.198 | -0.122 | -0.3
HSH2D (hematopoietic SH2 domain containing) | 0.797 | 0.831 | 0.75 | 0.693 | 0.642
PDIA2 (protein disulfide isomerase family A member 2) | 0.106 | 2.25 | 0.0686 | 0.154 | 0.0729
NUDT4 (nudix hydrolase 4) | 0.929 | 1.29 | 0.839 | 0.973 | 0.942
SYNGR3 (synaptogyrin 3) | -0.182 | 2.29 | -0.0861 | -0.0512 | -0.132

Only “KSR1 correlation, replicate 3”, for 3 of the entries above:
SNX15 (sorting nexin 15)	0.346
GAGE2E (G antigen 2E)	-0.434
POP7 (POP7 ribonuclease P/MRP subunit)	-0.0136
